Measured values from US20190352376A1.
No constants are given. Whether binding was seen depends on the method and setting. A result given as binding can be weak or reduced; the word gives no strength.

Biological target: hemagglutinin of H1N1 Avian like Swine (influenza virus H1N1 Avian like Swine)
Test: Western blot; virus, MDCK cells

B1: F211-11H12 (antibody, V domains shown)
VH: DVQLQESGPGLVKPSQSLSLTCSVTGYSITSDYYWNWIRQFPGNKLEWMAYIGYDGTKNYNPSLKNRISITRDTSKNQFFLKLNSVTTDDTATYYCTRDRANWDDYFDYWGQGTTLTVSS
VL: DIVMSQSPSSLAVSVGEKVTMSCKSSQSLLNSRNQKNHLAWYQQKPGQSPKLLIYWASTRESGVPDRFTGDGSGTDFTLTISSVKAEDLAVYYCQQYYTYRTFGGGTKLEIK
With B1 the binding was “binds”.

B2: F211-10A9 (antibody, V domains shown)
VH: QIQLQQSGPELVKPGAPVKISCKASGYTFTDYYIHWVNQRPGQGLEWIGYIYPGNGHTVYNQKFKVRATLTADNPSSTAYLQLNSLTSEDSGVYFCAYDLFNYWGQGTLVTVSA
VL: DIVMTQSPSSLAMSVGQKVTMSCKSSQSLLNSDTQKNFLAWYQQKPGQSPKILVYFASTKESGVPDRFIGSGSGTDFTLTITSVQAEDLADYFCQQYYSIPLTFGAGTKLELK
B2 was tested, and the binding was “binds”.
